Assay results taken from PubChem BioAssay AID2685 (National Center for Advancing Translational Sciences (NCATS), 2010).
Out of some 320,000 compounds screened, about 2,100 (0.66%) were called active. This list was built around the results that the source calls inconclusive (neither active nor inactive); the mix of calls is not that of the screen. The call rests on the fitted dose curve; in most records, active means well fitted inhibition curve with a large enough effect in the signal ratio, with a control signal flat (not every such curve was filed as active); inconclusive means small, poorly fitted or top-dose-only effect, or effect the other way, or a change in a side signal; inactive means flat fitted curve, though single readings scatter; the % refers to the signal ratio. Potencies of inconclusive entries are doubtful fits and often do not repeat.

test: qHTS Assay for Lipid Storage Modulators in Drosophila S3 Cells; conditions: BODIPY lipid droplet fluorescence, 18-24 h, cells fed with added oleic acid; lipid storage change, negative = inhibition: at 46.1 µM (top of the series) unless noted
Outline: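 Laser-scanning cytometry quantifies lipid droplet accumulation (500–530 nm total intensity; droplet/cell object ratio) in oleic acid-fed (400 uM added) Drosophila S3 cells treated with a concentration series. 20 uM Triacsin C defined 100% inhibition.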
On the % scale 0 is the no-effect control and ±100 the full control effect; potency means the concentration at half of the fitted maximal effect.

Question: For `Cc1nnc(SCc2ccc(F)cc2Cl)s1`, which “outcome” value is on record?
Answer: inactive [at 46.1 µM]

Question: With `O=C(COc1ccccc1Cl)NCCNC(=O)c1ccccn1` as the molecule, how does the Potency read?
Answer: inconclusive: 29.1 µM [falling, single point]

Question: With `Cc1ccc(NC(=O)CCSc2nnc(Cc3ccccc3)o2)cc1` as the molecule, how does the lipid storage change, negative = inhibition read?
Answer: inconclusive: -2.47%

Question: Which lipid storage change, negative = inhibition does the source give for `CC1(c2nnc(-c3ccc(F)cc3)o2)CC(c2ccccc2)=NO1` (centres undefined) here?
Answer: inconclusive: 15.8%

Question: For `O=C(NC1CCS(=O)(=O)C1)c1cn(-c2ccccc2)nc1-c1ccccc1` (centres undefined), which lipid storage change, negative = inhibition is on record?
Answer: inconclusive: 8.34%

Question: Which lipid storage change, negative = inhibition does the source give for `Cc1nnc(SCC2=C(C(=O)O)N3C(=O)C(NC(=O)COc4ccc(F)cc4)C3SC2)s1` (centres undefined) here?
Answer: inconclusive: 6.53%

Question: For `Cc1ccc(CNC(=O)CCCCCNc2nc(=S)[nH]c3ccccc23)cc1`, which Potency is on record?
Answer: inconclusive: 2.91 µM [activator, single point]

Question: For `O=C(COC(=O)c1ccccc1NC(=O)c1ccco1)NCc1ccc2c(c1)OCO2`, which lipid storage change, negative = inhibition is on record?
Answer: inconclusive: 18.7%

Question: For `COC(=O)CCCn1nc(NC(=O)COc2ccc(F)cc2)cc1C`, which lipid storage change, negative = inhibition is on record?
Answer: inconclusive: -19.9%

Question: For `COc1cccc(C(C(=O)NCC2CCCO2)N(C(=O)Cn2nnc3ccccc32)c2ccccc2C(C)=O)c1OC` (centres undefined), which lipid storage change, negative = inhibition is on record?
Answer: inconclusive: 28.6%

Question: With `Cc1c(Cl)ccc2c1NC(=O)[C@]21N[C@@H](Cc2ccccc2)[C@H]2C(=O)N(c3ccc(F)cc3)C(=O)[C@H]21` as the molecule, how does the lipid storage change, negative = inhibition read?
Answer: inconclusive: 79.9%

Question: Which Potency does the source give for `COc1ccc(/C=C/c2nc3ccccc3c(=O)o2)cc1` here?
Answer: inconclusive: 11.6 µM [activator, partial curve]

Question: With `Brc1cccc(CN2CCN(c3ncccn3)CC2)c1` as the molecule, how does the Potency read?
Answer: inconclusive: 20.6 µM [activator, single point]

Question: Which lipid storage change, negative = inhibition does the source give for `Cc1c(C)c2c(OCC(=O)NCCCO)cc3c(c2oc1=O)CCC(C)(C)O3` here?
Answer: inconclusive: 17.3%

Question: With `Cc1cc(Cl)c(OCCOCCN2CCCCC2)c(Br)c1` as the molecule, how does the Potency read?
Answer: inconclusive: 0.58 µM [falling, partial curve, poor fit]

Question: For `Cn1c(SCc2nc(-c3ccc(Br)cc3)no2)nnc1-c1ccco1`, which lipid storage change, negative = inhibition is on record?
Answer: inconclusive: 8.2%

Question: Which “lipid storage change, negative = inhibition” value does the source give for `O=C(COc1ccc(Cl)cc1)N(Cc1ccco1)C1CCS(=O)(=O)C1` (centres undefined) here?
Answer: inactive: 5.44%

Question: With `COc1ccc2nc(-c3ccccc3)cc(C(=O)OCC(=O)N3CC(C)OC(C)C3)c2c1` (centres undefined) as the molecule, how does the Potency read?
Answer: inconclusive: 23.1 µM [falling, partial curve, poor fit]

Question: Which lipid storage change, negative = inhibition does the source give for `Cc1nn(-c2ccccc2)c2c1C(c1ccc(Br)s1)C(C#N)=C(N)O2` (centres undefined) here?
Answer: inconclusive: -17.6%

Question: For `O=C(Cn1nc(-c2ccc(N3CCOCC3)c([N+](=O)[O-])c2)c2ccccc2c1=O)N1CCCCC1`, which Potency is on record?
Answer: inconclusive: 10.3 µM [activator, partial curve]

Question: For `Cc1ccc(/C(N)=N/OC(=O)Cc2cccs2)cc1`, which Potency is on record?
Answer: inconclusive: 18.4 µM [falling, partial curve, poor fit]

Question: With `CN(C)c1ccc(CNC(=O)CN(C)S(=O)(=O)c2cccc3cccnc23)cc1` as the molecule, how does the lipid storage change, negative = inhibition read?
Answer: inconclusive: -3.52%

Question: With `COc1ccc(OC)c(NC(=O)[C@@]2(CC(=O)O)CC(/C=C/c3ccccc3)=NO2)c1` as the molecule, how does the Potency read?
Answer: inconclusive: 20.6 µM [falling, single point]

Question: With `N#CC1(c2ccccc2)CCCN1C(=O)c1ccco1` (centres undefined) as the molecule, how does the Potency read?
Answer: inconclusive: 5.17 µM [falling, partial curve]

Question: With `COc1cccc(NC(=O)CSc2nnc(-c3ccco3)c(-c3ccco3)n2)c1` as the molecule, how does the lipid storage change, negative = inhibition read?
Answer: inconclusive: 23.5%

Question: For `CC1(C)CC(=O)C(C(C2=C(O)CC(C)(C)CC2=O)c2cccnc2)C(=O)C1` (centres undefined), which lipid storage change, negative = inhibition is on record?
Answer: inconclusive: 28%

Question: Which lipid storage change, negative = inhibition does the source give for `COc1ccc(NC2c3ccccc3C(=O)N2Cc2ccco2)cc1OC` (centres undefined) here?
Answer: inconclusive: 39.2%

Question: For `Cc1cccc(CCN(C(=O)c2csnn2)C(C(=O)NC2CCCC2)c2ccco2)c1` (centres undefined), which lipid storage change, negative = inhibition is on record?
Answer: inconclusive: -73.4%

Question: Which lipid storage change, negative = inhibition does the source give for `O=C(Nc1cccnc1)C1CC(c2ccc(Cl)c(Cl)c2)=NO1` (centres undefined) here?
Answer: inconclusive: 11.2%

Question: For `Cc1ccc(Cn2c(NCCc3ccccc3)nc3c2c(=O)n(C)c(=O)n3C)cc1`, which lipid storage change, negative = inhibition is on record?
Answer: inconclusive: -95.1%

Question: For `CCC(Oc1ccccc1F)C(=O)Nc1ccc2c(c1)n(C)c(=O)n2C` (centres undefined), which lipid storage change, negative = inhibition is on record?
Answer: inconclusive: -10.3%

Question: For `O=C(O)C/C(=C\c1cc(Cl)c2c(c1)OCO2)c1nc2ccccc2s1`, which lipid storage change, negative = inhibition is on record?
Answer: inconclusive: -186%

Question: Which Potency does the source give for `O=C(Nc1ccccc1[N+](=O)[O-])c1cc(S(=O)(=O)N2CCOCC2)cs1` here?
Answer: inconclusive: 13 µM [falling, partial curve, poor fit]

Question: For `Cc1ccc(N=Cc2c(O)n(C)c(=O)n(C)c2=O)nc1`, which “lipid storage change, negative = inhibition” value is on record?
Answer: inactive: 1.38%

Question: For `COc1ccc(OCC(=O)N2CCN(C(=O)Cc3ccccc3)CC2)cc1`, which lipid storage change, negative = inhibition is on record?
Answer: inconclusive: 23.7%

Question: Which lipid storage change, negative = inhibition does the source give for `COc1ccc(C2=NS(=O)(=O)N(C)C(C(=O)Nc3ccc(C)cc3)=C2)cc1` here?
Answer: inconclusive: -75.3%

Question: Which lipid storage change, negative = inhibition does the source give for `CC1Cc2cc(/C(O)=C3\C(=O)C(=O)N(Cc4cccnc4)C3c3ccccc3F)ccc2O1` (centres undefined) here?
Answer: inconclusive: -1.92%

Question: With `Cc1ccccc1N1CCN(C(=O)C2CCCCC2)CC1` as the molecule, how does the Potency read?
Answer: inconclusive: 6.51 µM [falling, single point]

Question: With `COCCn1c(SCC(=O)NC2CCCC2)nnc1C(C)C` as the molecule, how does the lipid storage change, negative = inhibition read?
Answer: inconclusive: -5.81%

Question: Which lipid storage change, negative = inhibition does the source give for `CN(C)N1C(N)=C(C#N)C(c2ccc(Cl)cc2)C2=C1CCCC2=O` (centres undefined) here?
Answer: inconclusive: -132%

Question: Which Potency does the source give for `CCC(Sc1nc(N)cc(N)n1)C(=O)O` (centres undefined) here?
Answer: active: 20.6 µM

Question: With `CN(C)S(=O)(=O)c1ccc(C(=O)NCCOc2ccc(F)cc2)cc1` as the molecule, how does the Potency read?
Answer: active: 18.4 µM

Question: For `OC(COc1ccc(Cl)cc1)CN1CCCCC1` (centres undefined), which lipid storage change, negative = inhibition is on record?
Answer: inconclusive: 3.99%

Question: Which Potency does the source give for `Cc1ccc(C(C(=O)NC2CCCCC2)N(Cc2ccco2)C(=O)C2COc3ccccc3O2)o1` (centres undefined) here?
Answer: inconclusive: 29.1 µM [falling, single point]

Question: With `COCCCNC(=O)c1ccccc1-c1cc(C)no1` as the molecule, how does the “lipid storage change, negative = inhibition” value read?
Answer: inactive: 14.1%

Question: Which Potency does the source give for `CN1/C(=C\C(=S)NC(=O)c2ccc([N+](=O)[O-])cc2)C(C)(C)c2ccccc21` here?
Answer: inconclusive: 23.1 µM [falling, single point]

Question: With `CC1CCN(S(=O)(=O)c2ccc(NC(=O)CN3CCN(C)CC3)cc2)CC1` as the molecule, how does the lipid storage change, negative = inhibition read?
Answer: inconclusive: -17.3%

Question: With `Cc1cc(C)c(OCC(=O)Nc2ccc(S(=O)(=O)N3CCCC3)cc2)c(C)c1` as the molecule, how does the “outcome” value read?
Answer: inactive [at 46.1 µM]

Question: With `COc1ccc(-c2nc(SC(CC(=O)NCCN3CCOCC3)c3cccs3)n[nH]2)cc1` (centres undefined) as the molecule, how does the lipid storage change, negative = inhibition read?
Answer: inconclusive: -30.4%
